Residue numbers refer to the chain shown, from its start. “Also recorded” adds a separate entry of the source.
Key:
AR Y594D mutant = target: T1, AR Y594D mutant (Homo sapiens, UniProt P10275, Y594D); assay: ARR3tk-luciferase reporter assay in PC3 cells, AR Y594D; assay type: cell-based
T1 construct: expressed in transfected cells; host or cells: PC3
T1 sequence (P10275 1-920 Y594D): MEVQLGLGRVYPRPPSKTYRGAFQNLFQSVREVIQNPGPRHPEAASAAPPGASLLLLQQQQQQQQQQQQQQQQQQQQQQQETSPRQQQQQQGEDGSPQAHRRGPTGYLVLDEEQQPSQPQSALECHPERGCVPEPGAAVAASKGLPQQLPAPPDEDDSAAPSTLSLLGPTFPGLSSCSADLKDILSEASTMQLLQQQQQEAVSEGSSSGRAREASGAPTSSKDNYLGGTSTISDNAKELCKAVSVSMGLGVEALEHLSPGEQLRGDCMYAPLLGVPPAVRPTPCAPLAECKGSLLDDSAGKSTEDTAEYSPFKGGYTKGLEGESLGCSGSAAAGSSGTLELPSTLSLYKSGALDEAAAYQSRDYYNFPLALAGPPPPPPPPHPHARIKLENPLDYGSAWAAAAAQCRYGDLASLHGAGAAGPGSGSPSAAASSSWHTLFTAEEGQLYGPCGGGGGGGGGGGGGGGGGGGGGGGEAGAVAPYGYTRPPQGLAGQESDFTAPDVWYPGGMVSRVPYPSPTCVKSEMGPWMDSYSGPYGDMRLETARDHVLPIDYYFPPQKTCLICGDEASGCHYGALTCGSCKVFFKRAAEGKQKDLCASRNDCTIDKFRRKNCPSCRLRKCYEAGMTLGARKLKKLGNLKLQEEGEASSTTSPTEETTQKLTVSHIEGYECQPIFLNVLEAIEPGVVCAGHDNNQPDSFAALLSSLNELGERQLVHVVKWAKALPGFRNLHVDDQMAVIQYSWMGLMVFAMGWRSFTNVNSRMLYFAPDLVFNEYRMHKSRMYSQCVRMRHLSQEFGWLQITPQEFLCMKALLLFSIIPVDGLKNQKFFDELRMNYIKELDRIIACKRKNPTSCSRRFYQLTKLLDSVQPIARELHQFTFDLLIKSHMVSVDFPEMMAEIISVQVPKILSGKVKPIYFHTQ
Method: (§1) 8. Mutation Studies: The residues in the predicted binding site were mutated using the Quickchange™ Site-Directed Mutagenesis Kit as per the instructions.
(§2) 9. Transient Transfection: The PC3/MCF7 cells were seeded into a 96-well plate (2,000 cells/well). After 24 hrs, the wild-type AR (50 ng/well)/AR mutants and AR3TK-luciferase plasmids (1:3) were co-transfected into PC3 cells or ERE-luciferase (50 ng/well) was transfected into MCF7 cells using transfection reagent TT20. 24 hrs after the transfection, the cells were treated with the compounds at various concentrations. And 24 hrs later, the cells were lysed and the reading was taken using a luminometer.

AR Q592D mutant = target: T2, AR Q592D mutant (Homo sapiens, UniProt P10275, Q592D); assay: ARR3tk-luciferase reporter assay in PC3 cells, AR Q592D; assay type: cell-based
T2 construct: Full-length human AR (hARWT) or splice variant (AR-V7) was encoded on a pcDNA3.1 expression plasmid; expressed in transfected cells; host or cells: PC3
T2 sequence (P10275 1-920 Q592D): T1 sequence (P10275 1-920 Y594D) with Q592D, D594Y
Method: as §1, §2

PARP = assay: Western blots against PARP / cleaved PARP (apoptosis); assay type: cell-based, human; conditions: PC3 luciferase assay lysates
Method: Cell lysates (40 μl) from luciferase assays (96-well plate) were separated on a 10% SDS-polyacrylamide mini gel. Protein was transferred to methanol-charged PVDF membranes and probed with anti-AR441 (mouse, Sigma™) monoclonal primary antibody. Blots were also probed with polyclonal anti-actin (rabbit, Sigma™) to show equal loading and polyclonal anti-PARP/anti-cleaved PARP (rabbit, Sigma™) to test for induction of apoptosis. Lysates from CWR-R1 cells were additionally probed with polyclonal anti-FKBP5 (rabbit, Sigma™) following 2 days of incubation with compounds.

AR-V7Y594D = target: T3, AR-V7Y594D (Homo sapiens, UniProt P10275, Y594D); assay: ARR3tk-luciferase reporter assay in PC3 cells, AR-V7 Y594D
T3 sequence (P10275 1-644 isoform P10275-3 Y594D): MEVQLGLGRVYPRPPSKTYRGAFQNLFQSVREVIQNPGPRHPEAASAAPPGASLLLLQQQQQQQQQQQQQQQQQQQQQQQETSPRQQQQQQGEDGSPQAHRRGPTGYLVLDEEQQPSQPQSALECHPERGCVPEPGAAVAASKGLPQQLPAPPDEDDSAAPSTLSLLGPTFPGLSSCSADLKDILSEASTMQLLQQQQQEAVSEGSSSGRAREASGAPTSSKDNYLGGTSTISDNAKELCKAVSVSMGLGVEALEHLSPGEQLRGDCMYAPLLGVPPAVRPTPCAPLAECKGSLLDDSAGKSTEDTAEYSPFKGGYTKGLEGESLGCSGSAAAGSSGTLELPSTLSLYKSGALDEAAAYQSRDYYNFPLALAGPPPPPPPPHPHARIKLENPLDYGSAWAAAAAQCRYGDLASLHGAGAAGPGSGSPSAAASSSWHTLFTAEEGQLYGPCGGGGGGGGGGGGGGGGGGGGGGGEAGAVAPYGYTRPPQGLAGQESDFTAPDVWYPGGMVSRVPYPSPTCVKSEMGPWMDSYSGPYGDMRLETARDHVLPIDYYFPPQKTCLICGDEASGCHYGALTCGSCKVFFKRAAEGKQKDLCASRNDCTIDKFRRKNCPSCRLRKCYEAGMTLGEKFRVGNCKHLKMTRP

inhibition of AR-V7Y594D transcriptional activity (AR-V7Y594D): strongly inhibited
SMILES: Cc1cc(/C=C/c2ccc3cc(N(C)C)ccc3[n+]2C)c(C)n1-c1ccccc1 [Compound 14337, pyrvinium, reference compound]
inhibition of Y594D AR luciferase expression (AR Y594D mutant): strongly inhibited; also recorded: inability to inhibit | inhibition of Q592D AR luciferase expression (AR Q592D mutant): strongly inhibited; also recorded: inability to inhibit | toxicity / induction of apoptosis (PARP cleavage) (PARP): strongly induces apoptosis | toxicity / induction of apoptosis (PARP cleavage) (PARP; listed as pyrvinium): general toxicity
